Measured values published in patent US7446122B2, “Substituted indole derivatives” (Cephalon, Inc., priority 2003, dated 2008).
Some of these results come from one statement about several compounds together.

Test: Daudi lymphoma murine xenograft model, body weight and histopathology
Type: in vivo, male SCID mice
Details: at the beginning of the study; chlorambucil 2 mg/kg/d; recovered after Day 2

O=C(O)CCCc1ccc(N(CCCl)CCCl)cc1 [Chlorambucil, chlorambucil, reference compound]
body weight loss: < 3%
